For three molecules, binding results are on record in article PMC4591814.

Sequences of proteins named here, by UniProt entry; tags and fusion partners are left off.
UniProt Q9BXW9: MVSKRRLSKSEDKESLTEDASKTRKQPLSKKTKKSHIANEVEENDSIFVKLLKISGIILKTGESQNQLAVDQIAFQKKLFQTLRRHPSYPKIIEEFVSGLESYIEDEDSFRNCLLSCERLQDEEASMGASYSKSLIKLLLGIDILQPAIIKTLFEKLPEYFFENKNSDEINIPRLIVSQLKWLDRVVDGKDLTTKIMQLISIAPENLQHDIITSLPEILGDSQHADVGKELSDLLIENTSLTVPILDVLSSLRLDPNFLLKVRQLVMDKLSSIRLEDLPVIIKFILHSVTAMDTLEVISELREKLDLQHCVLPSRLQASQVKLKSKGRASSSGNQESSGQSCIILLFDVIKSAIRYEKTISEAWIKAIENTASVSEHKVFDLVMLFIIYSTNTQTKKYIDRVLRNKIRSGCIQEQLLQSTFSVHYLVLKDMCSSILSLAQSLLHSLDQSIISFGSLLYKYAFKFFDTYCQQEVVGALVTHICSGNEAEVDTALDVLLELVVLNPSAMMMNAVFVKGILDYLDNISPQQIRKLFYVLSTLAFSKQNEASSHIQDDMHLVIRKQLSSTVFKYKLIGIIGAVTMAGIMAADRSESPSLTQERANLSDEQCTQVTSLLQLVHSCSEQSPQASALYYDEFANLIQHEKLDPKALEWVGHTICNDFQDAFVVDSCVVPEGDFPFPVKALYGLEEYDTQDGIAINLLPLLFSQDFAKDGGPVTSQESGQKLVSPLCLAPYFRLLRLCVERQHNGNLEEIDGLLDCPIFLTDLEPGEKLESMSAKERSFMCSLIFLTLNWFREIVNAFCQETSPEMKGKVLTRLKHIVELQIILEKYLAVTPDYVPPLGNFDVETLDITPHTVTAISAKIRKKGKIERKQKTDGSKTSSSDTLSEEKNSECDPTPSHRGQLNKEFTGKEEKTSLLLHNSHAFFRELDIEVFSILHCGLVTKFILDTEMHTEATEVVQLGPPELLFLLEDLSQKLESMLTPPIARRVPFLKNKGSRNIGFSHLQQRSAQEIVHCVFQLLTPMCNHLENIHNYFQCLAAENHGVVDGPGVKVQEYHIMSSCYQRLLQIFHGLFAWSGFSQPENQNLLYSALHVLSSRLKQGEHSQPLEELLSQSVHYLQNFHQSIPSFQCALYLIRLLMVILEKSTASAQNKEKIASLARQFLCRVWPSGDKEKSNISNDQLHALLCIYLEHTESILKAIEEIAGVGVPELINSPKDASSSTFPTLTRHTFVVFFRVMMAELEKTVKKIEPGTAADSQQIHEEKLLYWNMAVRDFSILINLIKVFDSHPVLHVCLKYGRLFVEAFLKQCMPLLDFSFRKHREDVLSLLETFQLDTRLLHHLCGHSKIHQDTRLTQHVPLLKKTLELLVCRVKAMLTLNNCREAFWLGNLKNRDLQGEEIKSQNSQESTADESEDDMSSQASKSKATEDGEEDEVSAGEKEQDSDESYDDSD

In test [1] the target is T1, FLAG and HA epitope-tagged human DNA polymerase ν (POLN) (human) (UniProt Q7Z5Q5).
T1 sequence: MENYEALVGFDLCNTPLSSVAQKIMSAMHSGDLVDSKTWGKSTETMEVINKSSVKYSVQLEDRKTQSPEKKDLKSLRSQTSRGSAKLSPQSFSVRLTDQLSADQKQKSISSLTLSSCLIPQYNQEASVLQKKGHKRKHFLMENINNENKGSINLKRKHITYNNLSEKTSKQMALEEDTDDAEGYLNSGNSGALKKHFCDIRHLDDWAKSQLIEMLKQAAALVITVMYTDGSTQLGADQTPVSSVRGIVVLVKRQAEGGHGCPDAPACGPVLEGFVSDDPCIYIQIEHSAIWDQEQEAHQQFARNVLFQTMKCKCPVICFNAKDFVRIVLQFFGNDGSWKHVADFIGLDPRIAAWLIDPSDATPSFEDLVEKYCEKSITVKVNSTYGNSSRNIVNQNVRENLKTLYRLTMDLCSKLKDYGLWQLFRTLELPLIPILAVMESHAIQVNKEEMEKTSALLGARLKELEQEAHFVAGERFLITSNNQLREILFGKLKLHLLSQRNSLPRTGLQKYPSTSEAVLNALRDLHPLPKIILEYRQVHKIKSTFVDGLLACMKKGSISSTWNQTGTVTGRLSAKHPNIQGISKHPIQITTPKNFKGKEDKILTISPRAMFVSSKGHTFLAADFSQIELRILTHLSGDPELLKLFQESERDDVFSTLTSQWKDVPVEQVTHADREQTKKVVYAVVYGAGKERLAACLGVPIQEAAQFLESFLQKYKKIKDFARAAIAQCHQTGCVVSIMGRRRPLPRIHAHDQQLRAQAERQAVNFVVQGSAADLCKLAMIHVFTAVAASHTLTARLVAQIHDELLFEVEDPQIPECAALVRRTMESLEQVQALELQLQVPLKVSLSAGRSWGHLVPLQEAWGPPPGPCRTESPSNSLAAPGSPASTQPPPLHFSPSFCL
Put plainly: co-IP; FLAG-HA-POLN complex immunopurified (anti-FLAG, then anti-HA) from HeLa S3 nuclear extract; immunoblotting with specific antibodies.

For test [2], the target named is T2, FLAG and HA epitope-tagged FANCL (UniProt Q9NW38).
T2 sequence: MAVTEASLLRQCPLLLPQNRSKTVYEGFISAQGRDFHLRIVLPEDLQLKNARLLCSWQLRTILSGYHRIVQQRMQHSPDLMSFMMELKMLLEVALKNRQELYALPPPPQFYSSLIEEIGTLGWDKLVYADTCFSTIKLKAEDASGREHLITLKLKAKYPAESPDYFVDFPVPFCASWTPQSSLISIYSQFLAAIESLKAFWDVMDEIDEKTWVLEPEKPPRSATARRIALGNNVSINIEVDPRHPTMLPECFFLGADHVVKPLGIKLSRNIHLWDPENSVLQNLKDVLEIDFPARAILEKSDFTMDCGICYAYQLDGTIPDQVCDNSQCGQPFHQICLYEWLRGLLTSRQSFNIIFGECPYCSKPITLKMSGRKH
Put plainly: co-IP; FLAG-HA-FANCL complex immunopurified (anti-FLAG, then anti-HA) from nuclear extracts of HeLa S3 cells with or without 3 mM HU for 24 h; immunoblotting with specific antibodies.

These are yes or no findings as the source states them, for the method shown. Binding seen in cells or lysates may run through a third protein. Some results given as binding are weak or reduced against the parent protein; the word gives no strength. Sequences can lack the tags named with a protein.

As to “FANCD2 (endogenous) (from UniProt Q9BXW9 1-1451)”, in test [1], the binding result is “no binding”.

B1: HELQ (endogenous) (protein, UniProt Q8TDG4 1-1101)
chain: MDECGSRIRRRVSLPKRNRPSLGCIFGAPTAAELVPGDEGKEEEEMVAENRRRKTAGVLPVEVQPLLLSDSPECLVLGGGDTNPDLLRHMPTDRGVGDQPNDSEVDMFGDYDSFTENSFIAQVDDLEQKYMQLPEHKKHATDFATENLCSESIKNKLSITTIGNLTELQTDKHTENQSGYEGVTIEPGADLLYDVPSSQAIYFENLQNSSNDLGDHSMKERDWKSSSHNTVNEELPHNCIEQPQQNDESSSKVRTSSDMNRRKSIKDHLKNAMTGNAKAQTPIFSRSKQLKDTLLSEEINVAKKTVESSSNDLGPFYSLPSKVRDLYAQFKGIEKLYEWQHTCLTLNSVQERKNLIYSLPTSGGKTLVAEILMLQELLCCRKDVLMILPYVAIVQEKISGLSSFGIELGFFVEEYAGSKGRFPPTKRREKKSLYIATIEKGHSLVNSLIETGRIDSLGLVVVDELHMIGEGSRGATLEMTLAKILYTSKTTQIIGMSATLNNVEDLQKFLQAEYYTSQFRPVELKEYLKINDTIYEVDSKAENGMTFSRLLNYKYSDTLKKMDPDHLVALVTEVIPNYSCLVFCPSKKNCENVAEMICKFLSKEYLKHKEKEKCEVIKNLKNIGNGNLCPVLKRTIPFGVAYHHSGLTSDERKLLEEAYSTGVLCLFTCTSTLAAGVNLPARRVILRAPYVAKEFLKRNQYKQMIGRAGRAGIDTIGESILILQEKDKQQVLELITKPLENCYSHLVQEFTKGIQTLFLSLIGLKIATNLDDIYHFMNGTFFGVQQKVLLKEKSLWEITVESLRYLTEKGLLQKDTIYKSEEEVQYNFHITKLGRASFKGTIDLAYCDILYRDLKKGLEGLVLESLLHLIYLTTPYDLVSQCNPDWMIYFRQFSQLSPAEQNVAAILGVSESFIGKKASGQAIGKKVDKNVVNRLYLSFVLYTLLKETNIWTVSEKFNMPRGYIQNLLTGTASFSSCVLHFCEELEEFWVYRALLVELTKKLTYCVKAELIPLMEVTGVLEGRAKQLYSAGYKSLMHLANANPEVLVRTIDHLSRRQAKQIVSSAKMLLHEKAEALQEEVEELLRLPSDFPGAVASSTDKA
On to B1, for which, in test [1], the binding entry was “no binding”.

B2: FANCA (endogenous) (protein, UniProt O15360 1-1455)
chain: MSDSWVPNSASGQDPGGRRRAWAELLAGRVKREKYNPERAQKLKESAVRLLRSHQDLNALLLEVEGPLCKKLSLSKVIDCDSSEAYANHSSSFIGSALQDQASRLGVPVGILSAGMVASSVGQICTAPAETSHPVLLTVEQRKKLSSLLEFAQYLLAHSMFSRLSFCQELWKIQSSLLLEAVWHLHVQGIVSLQELLESHPDMHAVGSWLFRNLCCLCEQMEASCQHADVARAMLSDFVQMFVLRGFQKNSDLRRTVEPEKMPQVTVDVLQRMLIFALDALAAGVQEESSTHKIVRCWFGVFSGHTLGSVISTDPLKRFFSHTLTQILTHSPVLKASDAVQMQREWSFARTHPLLTSLYRRLFVMLSAEELVGHLQEVLETQEVHWQRVLSFVSALVVCFPEAQQLLEDWVARLMAQAFESCQLDSMVTAFLVVRQAALEGPSAFLSYADWFKASFGSTRGYHGCSKKALVFLFTFLSELVPFESPRYLQVHILHPPLVPGKYRSLLTDYISLAKTRLADLKVSIENMGLYEDLSSAGDITEPHSQALQDVEKAIMVFEHTGNIPVTVMEASIFRRPYYVSHFLPALLTPRVLPKVPDSRVAFIESLKRADKIPPSLYSTYCQACSAAEEKPEDAALGVRAEPNSAEEPLGQLTAALGELRASMTDPSQRDVISAQVAVISERLRAVLGHNEDDSSVEISKIQLSINTPRLEPREHMAVDLLLTSFCQNLMAASSVAPPERQGPWAALFVRTMCGRVLPAVLTRLCQLLRHQGPSLSAPHVLGLAALAVHLGESRSALPEVDVGPPAPGAGLPVPALFDSLLTCRTRDSLFFCLKFCTAAISYSLCKFSSQSRDTLCSCLSPGLIKKFQFLMFRLFSEARQPLSEEDVASLSWRPLHLPSADWQRAALSLWTHRTFREVLKEEDVHLTYQDWLHLELEIQPEADALSDTERQDFHQWAIHEHFLPESSASGGCDGDLQAACTILVNALMDFHQSSRSYDHSENSDLVFGGRTGNEDIISRLQEMVADLELQQDLIVPLGHTPSQEHFLFEIFRRRLQALTSGWSVAASLQRQRELLMYKRILLRLPSSVLCGSSFQAEQPITARCEQFFHLVNSEMRNFCSHGGALTQDITAHFFRGLLNACLRSRDPSLMVDFILAKCQTKCPLILTSALVWWPSLEPVLLCRWRRHCQSPLPRELQKLQEGRQFASDFLSPEAASPAPNPDWLSAAALHFAIQQVREENIRKQLKKLDCEREELLVFLFFFSLMGLLSSHLTSNSTTDLPKAFHVCAAILECLEKRKISWLALFQLTESDLRLGRLLLRVAPDQHTRLLPFAFYSLLSYFHEDAAIREEAFLHVAVDMYLKLVQLFVAGDTSTVSPPAGRSLELKGQGNPVELITKARLFLLQLIPRCPKKSFSHVAELLADRGDCDPEVSAALQSRQQAAPDADLSQEPHLF
On to B2, for which the binding entry in test [2] is “binds”.
